Values from PubChem BioAssay AID743121 (NCATS, 2013).
The deposit covers about 26,000 reagents; below is an unselected part. Over the whole deposit, 167 (0.63%) got an active call. 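Calls are per gene from RSA p-values that are not deposited; an individual active-marked siRNA can sensitise only weakly.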 Entries without a mark were called inactive. The numbers tell different reagents against one gene apart. Not all columns of the deposit are shown. No sequences are given here.

Purpose: 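Knock-downs that sensitise breast cancer cells to camptothecin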 (primary screen)
Cell system: MDA-MB-231 cells, a human breast cancer line
Knock-down reagent: single siRNA against human genes, 20 nM siRNA (0.8 pmol per well)
Timing: 120 h (drug added 48 h after transfection, read 72 h later)
Challenge: camptothecin 20 nM (about EC30) for 72 h; vehicle 0.1% DMSO in parallel plates
Read-out: 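Cell viability by ATP luminescence (CellTiter-Glo) as % of non-targeting siRNA wells, and the log2 ratio of viability without drug over viability with camptothecin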
Reading the numbers: log2 vehicle/camptothecin viability: higher = stronger sensitisation to camptothecin; viability with camptothecin: higher = more viable cells
Call rule: 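Each gene scored by redundant siRNA activity (RSA) over its individual siRNA ratios; a gene is called active at p < 0.001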

target gene | reagent | log2 vehicle/camptothecin viability | viability with camptothecin (% of control)
FBXW7 | 1 | -0.5 | 71
FBXW7 | 2 | -0.21 | 84.3
FBXW7 | 3 | -0.117 | 65.7
FBXW7 | 4 | 0.156 | 80.6
MARCHF3 | 1 | -0.454 | 62.9
MARCHF3 | 2 | -0.227 | 89.2
MARCHF3 | 3 | 0.174 | 76.9
MARCHF3 | 4 | 0.0215 | 61.2
ZAP70 | 1 | 1.19 (active) | 43.5
ZAP70 | 2 | 0.124 (active) | 81.7
ZAP70 | 3 | 0.337 (active) | 51.5
ZAP70 | 4 | 0.797 (active) | 35.4
PDE8B | 1 | -0.366 | 109
PDE8B | 2 | -0.403 | 76.8
PDE8B | 3 | -0.172 | 107
PDE8B | 4 | -0.466 | 64.4
CHRNA9 | 1 | -0.348 | 76.6
CHRNA9 | 2 | -0.194 | 108
CHRNA9 | 3 | -0.277 | 50.7
CHRNA9 | 4 | 0.173 | 66
QDPR | 1 | -0.0949 | 106
QDPR | 2 | 0.0502 | 61.5
FBXO34 | 1 | -0.138 | 96.3
FBXO34 | 2 | 1.01 | 32.2
FBXO34 | 3 | 0.0124 | 78.5
FBXO34 | 4 | -0.282 | 105
SEZ6 | 1 | 0.0306 | 67.9
SEZ6 | 2 | 0.114 | 79.7
SEZ6 | 3 | -0.267 | 116
SEZ6 | 4 | -0.268 | 79.6
GPR179 | 1 | 0.137 | 73.3
GPR179 | 2 | 0.0831 | 67.1
GPR179 | 3 | -0.491 | 65
GPR179 | 4 | 0.0155 | 67.3
TMPRSS11B | 1 | -0.511 | 45.3
TMPRSS11B | 2 | -0.195 | 117
TMPRSS11B | 3 | -0.184 | 109
PTP4A3 | 1 | 0.155 | 80.7
PTP4A3 | 2 | -0.0746 | 64.4
PTP4A3 | 3 | -0.018 | 24.7
PTP4A3 | 4 | -0.385 | 81.4
RANBP10 | 1 | 0.0696 | 91.1
RANBP10 | 2 | -0.401 | 90.2
RANBP10 | 3 | 0.0459 | 20.6
RANBP10 | 4 | 0.338 | 47.6
PTPRO | 1 | 0.141 (active) | 57.6
PTPRO | 2 | 0.576 (active) | 31.4
PTPRO | 3 | 0.326 (active) | 34.9
PTPRO | 4 | 0.239 (active) | 37.7

An excerpt from above, showing only “log2 vehicle/camptothecin viability”.
PDE8B #3 = -0.172
PDE8B #4 = -0.466
CHRNA9 #1 = -0.348
CHRNA9 #2 = -0.194
CHRNA9 #3 = -0.277
CHRNA9 #4 = 0.173
QDPR #1 = -0.0949
